Patent publication US20220030866A1, “CONJUGATES OF AUXIN ANALOGS” (The State of Israel, Ministry of Agriculture & Rural …, priority 2019, published 2022)
Some entries share one result that the patent states for a list of compounds. For at least one compound, name, drawing or mass did not settle the structure.

Tests used:
[1] = system: Eucalyptus x trabutii cuttings; assay: rooting of Eucalyptus x trabutii cuttings; format: in vivo; conditions: 6 grams/liter K-IBA with 100 μM compound, base submersion plus leaf spray
Experimental: (§1) In order to investigate cloning of productive eucalyptus trees from cuttings, branches were excised from mature Eucalyptus x trabutii and Eucalyptus brachyphylla trees the field (in Kfar Pines, Israel)—selected based on their exceptional nectar production and honeybee attraction—placed in a humidified cooler box and brought to a climate-controlled greenhouse within 2 hours. Each cutting, 7 cm long, included three nodes with only two leaves remaining at its apical end. Two-thirds of each blade was excised to minimize evapotranspiration. The cutting bases were submerged for 1 minute in 6 grams/liter indole-3-butyric acid potassium salt (K-IBA), optionally supplemented with Compound 1s or 1t at a concentration of 100 μM. In addition, the leaves were sprayed with 100 μM of each compound in the presence of 0.05% Triton X-100 surfactant. Stock solutions of Compounds 1s and 1t were at a concentration of 100 mM in DMSO. The cuttings were planted in rooting medium containing peat, vermiculite and polystyrene flakes at a ratio of 1:2:3 respectively, on a heated rooting table under 90% humidity. Fungicides were applied to the rooting media on a weekly basis. Rooting percentage, number of roots per cutting and root length were measured after 1 and 2 weeks and after 1 and 2 months.

[2] = system: Eucalyptus brachyphylla cuttings; assay: rooting of Eucalyptus brachyphylla cuttings; format: in vivo; conditions: 6 grams/liter K-IBA with 100 μM compound, base submersion plus leaf spray
Experimental: as §1

SMILES: COC(=O)[C@@H](Cc1c[nH]c2ccccc12)NC(=O)COc1ccc(Cl)cc1 [Compound 1s, 4-CPA-D-Trp]
- rooting rate of E. x trabutii cuttings [1]: up to 45%
- rooting rate of E. brachyphylla cuttings [2]: up to 45%

SMILES: COC(=O)[C@H](Cc1c[nH]c2ccccc12)NC(=O)COc1ccc(Cl)cc1 [Compound 1t, 4-CPA-L-Trp]
- rooting rate of E. x trabutii cuttings [1]: up to 45%
- rooting rate of E. brachyphylla cuttings [2]: up to 45%
